PubChem BioAssay AID743454 – Peter MacCallum Cancer Centre – 2014
Shown is one part, drawn at random, of about 18,000 reagents. Over the whole deposit, 450 (2.5%) got an active call. 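Single biological run; no consistent viability z cut-off exists, so the class columns, not z-scores, define the calls.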 Entries without a mark were called inactive. No sequences are given here.

- Purpose: 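Search for knock-downs that restore vorinostat killing in resistant colon cancer cells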 (primary screen)
- System: human HCT116-VR colon cancer cells, selected for vorinostat resistance
- Reagent: siRNA pool against human genes, 40 nM siRNA pool
- Duration: vorinostat for 24 h, read-out about 72 h after transfection
- Challenge: vorinostat at 2.5 µM final
- Measured: 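Cell viability by CellTiter-Fluor and caspase 3/7 activity by luminescence, each scaled to mock wells per plate, duplicates averaged, then robust z-scored over all plates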
- Scale: viability robust z-score: higher = more viable cells than screen typical; caspase robust z-score: higher = more caspase 3/7 activity than screen typical
- Hit rule: 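a knock-down is a hit when classed RV1 or RV2 for lowered viability, or CA1 or CA2 for caspase activation; those lethal without drug were dropped; hits were retested singly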

Knock-down of CCNYL1 resulted in: viability hit class no change; caspase hit class no change; viability robust z-score -0.04; caspase robust z-score 0.48. Against C3 the deposit lists viability hit class no change; caspase hit class no change; viability robust z-score 0.65; caspase robust z-score -0.25. Against HK2 the deposit lists viability hit class no change; caspase hit class no change; viability robust z-score -2.42; caspase robust z-score 1.22. After knock-down of MIR99AHG, the screen gave viability hit class no change; caspase hit class no change; viability robust z-score 0.44; caspase robust z-score -0.48. SYBU scored viability hit class no change; caspase hit class no change; viability robust z-score -0.72; caspase robust z-score -0.24. Depletion of NAA20 resulted in: viability hit class no change; caspase hit class no change; viability robust z-score 1.76; caspase robust z-score 0.35.

NDRG3 scored viability hit class no change; caspase hit class no change; viability robust z-score 1.36; caspase robust z-score -0.54. Silencing of TET1 resulted in: viability hit class no change; caspase hit class no change; viability robust z-score 0.08; caspase robust z-score -0.08. Silencing of PRNT resulted in: viability hit class no change; caspase hit class no change; viability robust z-score -1.1; caspase robust z-score -1.17. Depletion of ALDH1A2 came out at: viability hit class no change; caspase hit class no change; viability robust z-score 0.45; caspase robust z-score -0.64. With knock-down of BACE2, the record shows viability hit class no change; caspase hit class no change; viability robust z-score 1.7; caspase robust z-score -0.1. After knock-down of HIC2, the screen gave viability hit class no change; caspase hit class no change; viability robust z-score 0.94; caspase robust z-score 0.52.

Depletion of NFYC came out at: viability hit class no change; caspase hit class no change; viability robust z-score 1.48; caspase robust z-score 1.28. With knock-down of CBX7, the screen gave viability hit class no change (active); caspase hit class CA1 (caspase activation); viability robust z-score 0.38; caspase robust z-score 6.73.

A few values from above:
Entry for ALDH1A2 in “caspase hit class”: no change
Value for C3 in “viability robust z-score”: 0.65
